Here are results for 9 targets from the supplement of paper PMC12819154, “High-throughput peptide-centric local stability assay extends protein–ligand identification to membrane proteins, tissues and bacteria” (Nature Structural & Molecular Biology, 2025).

Amino acid sequences for entries named in this document (tags omitted). A change or cut given only in a name is not applied to a line headed by its entry.
UniProt Q99426: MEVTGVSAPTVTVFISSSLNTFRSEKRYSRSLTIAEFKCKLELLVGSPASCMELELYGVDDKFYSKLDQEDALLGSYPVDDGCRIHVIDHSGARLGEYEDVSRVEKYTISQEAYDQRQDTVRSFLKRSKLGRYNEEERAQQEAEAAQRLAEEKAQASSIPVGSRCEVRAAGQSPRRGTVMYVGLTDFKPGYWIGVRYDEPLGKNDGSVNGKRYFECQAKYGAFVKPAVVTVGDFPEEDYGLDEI
UniProt Q96T51: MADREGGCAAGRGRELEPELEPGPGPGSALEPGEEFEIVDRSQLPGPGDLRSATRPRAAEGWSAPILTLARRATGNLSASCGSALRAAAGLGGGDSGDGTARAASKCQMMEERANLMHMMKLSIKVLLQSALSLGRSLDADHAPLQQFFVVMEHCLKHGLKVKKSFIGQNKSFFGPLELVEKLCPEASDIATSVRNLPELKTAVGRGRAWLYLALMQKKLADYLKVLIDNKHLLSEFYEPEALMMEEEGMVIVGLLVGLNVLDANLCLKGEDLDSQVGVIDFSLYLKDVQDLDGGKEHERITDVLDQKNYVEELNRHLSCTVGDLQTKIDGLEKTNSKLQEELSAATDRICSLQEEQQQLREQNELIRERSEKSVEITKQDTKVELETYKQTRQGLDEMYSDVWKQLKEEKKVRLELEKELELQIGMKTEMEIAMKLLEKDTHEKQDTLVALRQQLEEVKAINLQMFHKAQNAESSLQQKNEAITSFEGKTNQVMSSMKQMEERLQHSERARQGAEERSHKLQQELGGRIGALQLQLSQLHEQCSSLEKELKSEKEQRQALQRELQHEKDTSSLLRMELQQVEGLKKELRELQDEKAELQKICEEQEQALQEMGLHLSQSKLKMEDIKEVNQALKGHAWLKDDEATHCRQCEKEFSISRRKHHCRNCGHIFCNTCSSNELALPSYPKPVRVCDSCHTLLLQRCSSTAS
UniProt Q99728: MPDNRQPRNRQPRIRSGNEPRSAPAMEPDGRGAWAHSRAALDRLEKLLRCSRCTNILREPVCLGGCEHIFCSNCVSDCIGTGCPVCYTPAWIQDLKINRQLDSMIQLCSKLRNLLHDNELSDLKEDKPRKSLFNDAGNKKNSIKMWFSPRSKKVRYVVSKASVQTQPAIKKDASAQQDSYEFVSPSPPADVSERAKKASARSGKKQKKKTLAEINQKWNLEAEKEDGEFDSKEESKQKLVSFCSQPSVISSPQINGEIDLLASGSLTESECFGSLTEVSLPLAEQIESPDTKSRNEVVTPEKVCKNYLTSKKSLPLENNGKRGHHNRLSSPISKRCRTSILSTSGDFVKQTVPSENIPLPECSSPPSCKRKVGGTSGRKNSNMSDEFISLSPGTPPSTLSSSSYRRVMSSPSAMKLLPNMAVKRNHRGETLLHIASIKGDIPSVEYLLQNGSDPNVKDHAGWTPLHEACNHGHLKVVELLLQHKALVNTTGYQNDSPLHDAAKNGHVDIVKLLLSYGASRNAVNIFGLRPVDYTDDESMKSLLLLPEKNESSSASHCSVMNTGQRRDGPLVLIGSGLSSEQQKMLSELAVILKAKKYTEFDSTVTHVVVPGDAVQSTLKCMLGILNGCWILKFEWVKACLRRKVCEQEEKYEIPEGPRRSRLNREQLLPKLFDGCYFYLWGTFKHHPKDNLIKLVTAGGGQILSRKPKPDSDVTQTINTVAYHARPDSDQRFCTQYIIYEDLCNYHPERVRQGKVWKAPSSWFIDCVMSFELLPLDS
UniProt Q9BQY4: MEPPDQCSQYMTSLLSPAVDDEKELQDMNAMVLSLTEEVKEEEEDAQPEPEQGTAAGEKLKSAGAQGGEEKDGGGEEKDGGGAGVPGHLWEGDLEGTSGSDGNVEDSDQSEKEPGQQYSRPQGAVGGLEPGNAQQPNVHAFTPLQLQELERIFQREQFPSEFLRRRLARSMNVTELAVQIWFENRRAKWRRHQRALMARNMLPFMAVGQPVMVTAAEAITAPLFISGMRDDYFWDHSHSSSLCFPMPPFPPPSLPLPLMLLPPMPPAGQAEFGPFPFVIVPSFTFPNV
UniProt Q96T37: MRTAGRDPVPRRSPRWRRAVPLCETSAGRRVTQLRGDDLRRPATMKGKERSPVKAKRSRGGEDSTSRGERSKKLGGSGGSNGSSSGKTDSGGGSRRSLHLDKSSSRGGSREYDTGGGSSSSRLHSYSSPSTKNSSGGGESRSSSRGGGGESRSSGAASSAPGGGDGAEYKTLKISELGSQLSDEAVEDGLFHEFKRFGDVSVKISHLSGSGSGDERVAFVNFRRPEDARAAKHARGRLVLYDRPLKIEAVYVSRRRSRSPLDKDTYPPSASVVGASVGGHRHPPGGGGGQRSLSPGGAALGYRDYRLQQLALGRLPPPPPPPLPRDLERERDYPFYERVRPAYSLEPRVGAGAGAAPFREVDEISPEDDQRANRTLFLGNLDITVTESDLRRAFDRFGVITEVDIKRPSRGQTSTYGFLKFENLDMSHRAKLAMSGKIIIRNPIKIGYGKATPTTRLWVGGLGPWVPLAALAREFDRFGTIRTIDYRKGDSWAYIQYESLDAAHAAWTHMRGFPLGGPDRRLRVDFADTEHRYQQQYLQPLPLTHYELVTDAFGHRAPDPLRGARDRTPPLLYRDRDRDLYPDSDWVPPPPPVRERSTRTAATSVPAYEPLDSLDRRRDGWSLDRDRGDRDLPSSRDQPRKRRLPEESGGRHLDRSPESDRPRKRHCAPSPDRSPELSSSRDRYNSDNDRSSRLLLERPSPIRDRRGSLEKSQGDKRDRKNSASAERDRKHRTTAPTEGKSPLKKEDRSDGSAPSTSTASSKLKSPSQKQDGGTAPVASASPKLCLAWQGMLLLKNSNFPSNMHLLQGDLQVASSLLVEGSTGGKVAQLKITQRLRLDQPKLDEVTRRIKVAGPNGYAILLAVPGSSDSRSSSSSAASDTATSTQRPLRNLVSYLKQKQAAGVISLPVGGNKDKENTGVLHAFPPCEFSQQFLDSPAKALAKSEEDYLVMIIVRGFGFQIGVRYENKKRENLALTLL
UniProt Q99611, whole entry: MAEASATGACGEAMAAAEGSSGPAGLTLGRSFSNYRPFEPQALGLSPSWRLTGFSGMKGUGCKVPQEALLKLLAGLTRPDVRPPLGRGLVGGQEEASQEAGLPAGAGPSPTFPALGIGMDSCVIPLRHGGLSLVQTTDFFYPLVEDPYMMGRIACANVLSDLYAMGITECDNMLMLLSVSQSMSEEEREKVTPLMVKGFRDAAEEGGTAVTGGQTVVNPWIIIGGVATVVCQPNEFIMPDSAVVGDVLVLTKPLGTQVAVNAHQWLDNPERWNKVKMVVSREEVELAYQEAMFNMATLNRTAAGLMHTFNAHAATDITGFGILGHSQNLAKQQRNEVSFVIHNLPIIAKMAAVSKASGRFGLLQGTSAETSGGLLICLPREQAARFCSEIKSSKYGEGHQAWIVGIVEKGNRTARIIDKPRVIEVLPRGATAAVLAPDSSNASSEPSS
UniProt Q96SQ5: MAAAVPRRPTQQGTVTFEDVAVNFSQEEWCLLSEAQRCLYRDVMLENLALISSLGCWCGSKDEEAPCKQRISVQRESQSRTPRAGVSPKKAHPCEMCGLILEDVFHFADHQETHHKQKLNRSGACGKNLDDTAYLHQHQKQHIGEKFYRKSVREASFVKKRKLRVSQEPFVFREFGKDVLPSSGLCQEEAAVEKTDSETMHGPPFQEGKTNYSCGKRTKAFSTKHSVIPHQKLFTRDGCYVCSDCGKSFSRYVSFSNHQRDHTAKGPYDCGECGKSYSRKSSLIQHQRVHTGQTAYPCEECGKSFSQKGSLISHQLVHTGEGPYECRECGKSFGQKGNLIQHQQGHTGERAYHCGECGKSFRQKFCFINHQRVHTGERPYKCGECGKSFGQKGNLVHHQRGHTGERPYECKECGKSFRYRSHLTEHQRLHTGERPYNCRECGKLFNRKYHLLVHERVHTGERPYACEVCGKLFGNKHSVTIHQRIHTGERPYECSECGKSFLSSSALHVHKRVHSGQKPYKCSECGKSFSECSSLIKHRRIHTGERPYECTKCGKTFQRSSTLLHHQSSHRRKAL
UniProt Q99816: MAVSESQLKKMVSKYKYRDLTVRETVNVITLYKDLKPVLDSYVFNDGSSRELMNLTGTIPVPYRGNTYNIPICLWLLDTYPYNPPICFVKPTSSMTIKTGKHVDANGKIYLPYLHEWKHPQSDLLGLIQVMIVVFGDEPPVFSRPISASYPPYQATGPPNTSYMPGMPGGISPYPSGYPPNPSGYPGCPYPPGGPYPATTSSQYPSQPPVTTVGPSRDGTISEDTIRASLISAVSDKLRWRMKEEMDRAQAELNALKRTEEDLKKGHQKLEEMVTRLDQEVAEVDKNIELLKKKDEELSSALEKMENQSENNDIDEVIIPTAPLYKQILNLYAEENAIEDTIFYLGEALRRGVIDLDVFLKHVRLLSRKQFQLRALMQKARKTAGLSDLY
UniProt Q99502: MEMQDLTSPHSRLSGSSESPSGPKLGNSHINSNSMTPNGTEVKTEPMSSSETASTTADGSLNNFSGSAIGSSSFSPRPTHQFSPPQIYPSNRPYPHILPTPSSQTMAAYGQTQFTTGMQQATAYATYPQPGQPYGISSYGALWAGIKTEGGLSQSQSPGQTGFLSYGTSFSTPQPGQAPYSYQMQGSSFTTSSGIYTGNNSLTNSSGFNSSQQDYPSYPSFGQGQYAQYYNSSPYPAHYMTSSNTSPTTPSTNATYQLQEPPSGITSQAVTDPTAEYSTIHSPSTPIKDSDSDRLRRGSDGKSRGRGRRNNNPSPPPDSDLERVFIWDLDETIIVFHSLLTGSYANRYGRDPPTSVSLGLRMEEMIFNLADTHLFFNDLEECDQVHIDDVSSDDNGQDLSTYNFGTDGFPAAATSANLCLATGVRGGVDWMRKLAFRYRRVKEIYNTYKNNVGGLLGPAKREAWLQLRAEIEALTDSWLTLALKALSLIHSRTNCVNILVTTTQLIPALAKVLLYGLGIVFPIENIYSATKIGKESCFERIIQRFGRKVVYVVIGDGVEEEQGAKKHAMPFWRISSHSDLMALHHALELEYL

This is one part of the list. Most entries show no effect beyond the scatter of the controls.

Compound in the assay: Cc1nc(Nc2ncc(C(=O)Nc3c(C)cccc3Cl)s2)cc(N2CCN(CCO)CC2)n1 [dasatinib]
The assay can be described thus: log2 fold change of tryptic peptide abundance, ligand vs vehicle (limited proteolysis) (log2 ratio); higher = more trypsin-susceptible (destabilized). The following applies: ligand concentration: 5 uM; sample: K562 cleared lysate.
On to “TBCB (peptide sequence: SLTIAEFK, peptide start residue: 31) (UniProt Q99426)”, for which the log2 fold change is -0.198.
With “RUFY1 (peptide sequence: ELELQIGMK, peptide start residue: 420) (UniProt Q96T51)” the figure was 0.191.
With “BARD1 (peptide sequence: ASVQTQPAIKK, peptide start residue: 161) (UniProt Q99728)” the figure was -0.374; with “RHOXF2 (peptide sequence: EQFPSEFLR, peptide start residue: 156) (UniProt Q9BQY4)”, -0.169; with “RBM15 (peptide sequence: LRVDFADTEHR, peptide start residue: 522) (UniProt Q96T37)”, -0.153.
As for “SEPHS2 (peptide sequence: LLAGLTRPDVRPPLGR, peptide start residue: 72) (UniProt Q99611)”, the log2 fold change was -0.0645.
With “UniProt Q96SQ5 (peptide sequence: HSVIPHQK, peptide start residue: 225)” the figure was -0.477; with “TSG101 (peptide sequence: DLKPVLDSYVFNDGSSR, peptide start residue: 34) (UniProt Q99816)”, -0.612; with “UniProt Q99502 (peptide sequence: IGKESCFER, peptide start residue: 513)”, 0.193.
